Assay results taken from US10563263B2, “Genetic polymorphisms associated with statin response and cardiovascular diseases, methods of detection and uses thereof” (CELERA CORPORATION, priority 2010, dated 2020).
This continues a long series; more values of the same kind are listed elsewhere.

Test system: CHD
Assay: Meta-analysis of CARE and WOSCOPS combined, synergy index, CHD endpoint
Assay type: in vivo, human
From the text: Tables 4-5 provide meta-analyses of CARE and WOSCOPS combined (2nd section of each table) for two endpoints (CHD and CVD) and three genetic models (dominant, recessive, and additive), as well as logistic regression analyses of CARE (3rd section of each table) and WOSCOPS (4th section of each table) individually.
Tables 12 and 17 provide results of meta-analysis of the CARE and WOSCOPS sample sets combined by direct genotyping and by imputing genotypes.
“P” indicates the p-value, and “P(R)” (or “P.R.”) indicates the p-value random effect. Both of these are p-values corresponding to a statistical test of whether the combined synergy index is equal to one but use different assumptions to derive the p-value. “P” is calculated using a fixed effects model, and “P(R)” is calculated using a random effects model.
“OR” indicates the odds ratio (synergy index) calculated from a fixed effects model, and “OR(R)” (or “OR.R.”) indicates the odds ratio (synergy index) calculated from a random effects model.

[1] = rs36071725 allele C ADDITIVE Genotyped
[2] = rs36071725 allele C GENOTYPIC Genotyped
[3] = rs41395945 allele G ADDITIVE Imputed
[4] = rs41395945 allele G DOMINANT Imputed

CC[C@H](C)C(=O)O[C@H]1C[C@H](O)C=C2C=C[C@H](C)[C@H](CC[C@@H](O)C[C@@H](O)CC(=O)O)[C@H]21 [Pravastatin, pravastatin]
OR(R) (rs12831292 allele G DOMINANT Imputed, random effect): 0.6038
OR (rs13012636 allele G RECESSIVE Imputed, fixed effect): 1.7676
OR(R) (rs13012636 allele G RECESSIVE Imputed, random effect): 1.7676
OR (rs13038146 allele C ADDITIVE Imputed, fixed effect): 1.3722
OR(R) (rs13038146 allele C ADDITIVE Imputed, random effect): 1.3722
OR (rs13038146 allele C GENOTYPIC Imputed, fixed effect): 1.9531
OR(R) (rs13038146 allele C GENOTYPIC Imputed, random effect): 1.9531
OR (rs13038146 allele C RECESSIVE Imputed, fixed effect): 1.7021
OR(R) (rs13038146 allele C RECESSIVE Imputed, random effect): 1.7021
OR (rs13089860 allele A DOMINANT Imputed, fixed effect): 0.6379
OR(R) (rs13089860 allele A DOMINANT Imputed, random effect): 0.6379
OR (rs13102419 allele T RECESSIVE Imputed, fixed effect): 1.7512
OR(R) (rs13102419 allele T RECESSIVE Imputed, random effect): 1.7512
Meta-analysis OR (rs13137776 allele G vs A (ref)): 0.70
OR (rs13194907 allele A ADDITIVE Imputed, fixed effect): 1.9871
OR(R) (rs13194907 allele A ADDITIVE Imputed, random effect): 1.9871
OR (rs13194907 allele A DOMINANT Imputed, fixed effect): 2.0957
OR(R) (rs13194907 allele A DOMINANT Imputed, random effect): 2.0957
OR (rs13195745 allele A ADDITIVE Imputed, fixed effect): 1.9837
OR(R) (rs13195745 allele A ADDITIVE Imputed, random effect): 1.9837
OR (rs13195745 allele A DOMINANT Imputed, fixed effect): 2.0917
OR(R) (rs13195745 allele A DOMINANT Imputed, random effect): 2.0917
OR (rs13265054 allele T DOMINANT Imputed, fixed effect): 0.6362
OR(R) (rs13265054 allele T DOMINANT Imputed, random effect): 0.6362
OR (rs13273002 allele A GENOTYPIC Imputed, fixed effect): 0.2714
OR(R) (rs13273002 allele A GENOTYPIC Imputed, random effect): 0.2714
OR (rs13282131 allele C ADDITIVE Imputed, fixed effect): 1.3612
OR(R) (rs13282131 allele C ADDITIVE Imputed, random effect): 1.3612
OR (rs13282131 allele C GENOTYPIC Imputed, fixed effect): 1.8797
OR(R) (rs13282131 allele C GENOTYPIC Imputed, random effect): 1.8797
OR (rs13282131 allele C RECESSIVE Imputed, fixed effect): 1.6011
OR(R) (rs13282131 allele C RECESSIVE Imputed, random effect): 1.6011
OR (rs13387284 allele A DOMINANT Imputed, fixed effect): 0.5856
OR(R) (rs13387284 allele A DOMINANT Imputed, random effect): 0.5856
OR (rs13401462 allele C DOMINANT Imputed, fixed effect): 1.8734
OR(R) (rs13401462 allele C DOMINANT Imputed, random effect): 1.8734
OR (rs13409045 allele T ADDITIVE Imputed, fixed effect): 0.7108
OR(R) (rs13409045 allele T ADDITIVE Imputed, random effect): 0.7108
Meta-analysis OR (rs13431868 allele A vs G (ref)): 1.59
OR (rs16938626 allele G DOMINANT Imputed, fixed effect): 0.6242
OR(R) (rs16938626 allele G DOMINANT Imputed, random effect): 0.6242
OR (rs16964300 allele G ADDITIVE Imputed, fixed effect): 0.6665
OR(R) (rs16964300 allele G ADDITIVE Imputed, random effect): 0.6665
OR (rs16964300 allele G DOMINANT Imputed, fixed effect): 0.6299
OR(R) (rs16964300 allele G DOMINANT Imputed, random effect): 0.618
OR (rs16986282 allele G DOMINANT Imputed, fixed effect): 0.4237
OR(R) (rs16986282 allele G DOMINANT Imputed, random effect): 0.4355
OR (rs17007620 allele G ADDITIVE Imputed, fixed effect): 1.5131
OR(R) (rs17007620 allele G ADDITIVE Imputed, random effect): 1.5131
OR (rs17007620 allele G DOMINANT Imputed, fixed effect): 1.684
OR(R) (rs17007620 allele G DOMINANT Imputed, random effect): 1.684
OR (rs17014326 allele G DOMINANT Imputed, fixed effect): 0.6151
OR(R) (rs17014326 allele G DOMINANT Imputed, random effect): 0.6151
OR (rs17047957 allele C DOMINANT Imputed, fixed effect): 1.5018
OR(R) (rs17047957 allele C DOMINANT Imputed, random effect): 1.5018
OR (rs17073341 allele A ADDITIVE Imputed, fixed effect): 2.0963
OR(R) (rs17073341 allele A ADDITIVE Imputed, random effect): 1.9757
OR (rs17073341 allele A DOMINANT Imputed, fixed effect): 2.0915
OR(R) (rs17073341 allele A DOMINANT Imputed, random effect): 1.9741
OR (rs17138702 allele G ADDITIVE Imputed, fixed effect): 0.6037
OR(R) (rs17138702 allele G ADDITIVE Imputed, random effect): 0.6037
Meta-analysis OR (rs17138705 allele A vs G (ref)): 0.59
OR (rs17189710 allele T ADDITIVE Imputed, fixed effect): 1.3762
OR(R) (rs17189710 allele T ADDITIVE Imputed, random effect): 1.3762
OR (rs17189710 allele T GENOTYPIC Imputed, fixed effect): 1.959
OR(R) (rs17189710 allele T GENOTYPIC Imputed, random effect): 1.959
OR (rs17189710 allele T RECESSIVE Imputed, fixed effect): 1.7043
OR(R) (rs17189710 allele T RECESSIVE Imputed, random effect): 1.7043
OR (rs17310176 allele T ADDITIVE Imputed, fixed effect): 0.6909
OR(R) (rs17310176 allele T ADDITIVE Imputed, random effect): 0.6922
OR (rs17310176 allele T DOMINANT Imputed, fixed effect): 0.6548
OR(R) (rs17310176 allele T DOMINANT Imputed, random effect): 0.6669
Meta-analysis OR (rs17347854 allele G vs A (ref)): 0.61
OR (rs17358860 allele A DOMINANT Imputed, fixed effect): 0.6804
OR(R) (rs17358860 allele A DOMINANT Imputed, random effect): 0.6804
OR (rs17370541 allele T GENOTYPIC Imputed, fixed effect): 2.055
OR(R) (rs17370541 allele T GENOTYPIC Imputed, random effect): 2.055
OR (rs17370541 allele T RECESSIVE Imputed, fixed effect): 1.969
OR(R) (rs17370541 allele T RECESSIVE Imputed, random effect): 1.969
OR (rs17526574 allele G GENOTYPIC Imputed, fixed effect): 2.2297
OR(R) (rs17526574 allele G GENOTYPIC Imputed, random effect): 2.2297
OR (rs17530747 allele T DOMINANT Imputed, fixed effect): 0.6272
OR(R) (rs17530747 allele T DOMINANT Imputed, random effect): 0.6272
OR (rs17649114 allele C DOMINANT Imputed, fixed effect): 1.4394
OR(R) (rs17649114 allele C DOMINANT Imputed, random effect): 1.4394
Meta-analysis OR (rs17718867, A1 (non-ref) A, A2 (ref) G): 0.72
Meta-analysis OR (rs17740227 allele G vs A (ref)): 1.70
OR (rs17766172 allele A RECESSIVE Imputed, fixed effect): 0.4665
OR(R) (rs17766172 allele A RECESSIVE Imputed, random effect): 0.4683
Meta-analysis OR (rs33910446 allele A vs G (ref)): 2.24
OR [1]: 1.4999
OR(R) [1]: 1.4999
OR [2]: 2.5235
OR(R) [2]: 2.5053
OR [3]: 1.8637
OR(R) [3]: 1.8637
OR [4]: 1.9054
OR(R) [4]: 1.9054
